This continues a long series; more values of the same kind are listed elsewhere.
Columns and labels:
Type in all cases: cell-based
Conditions in all cases: U-87MG ATCC
[1] = Inhibition of RTK/PI3K/AKT/mTOR signaling in human U87 cells assessed as down regulation of SUPT16H gene expression at cytotoxic IC50 measured after 48 hrs relative to control
[2] = Inhibition of RTK/PI3K/AKT/mTOR signaling in human U87 cells assessed as down regulation of HNRNPL gene expression at cytotoxic IC50 measured after 48 hrs relative to control
[3] = Inhibition of RTK/PI3K/AKT/mTOR signaling in human U87 cells assessed as up regulation of FHL1 gene expression at cytotoxic IC50 measured after 48 hrs relative to control
[4] = Inhibition of RTK/PI3K/AKT/mTOR signaling in human U87 cells assessed as down regulation of FMR1 gene expression at cytotoxic IC50 measured after 48 hrs relative to control
[5] = Inhibition of RTK/PI3K/AKT/mTOR signaling in human U87 cells assessed as up regulation of sideroflexin 4 gene expression at cytotoxic IC50 measured after 48 hrs relative to control
[6] = Inhibition of RTK/PI3K/AKT/mTOR signaling in human U87 cells assessed as down regulation of SRD5A1 gene expression at cytotoxic IC50 measured after 48 hrs relative to control
[7] = Inhibition of RTK/PI3K/AKT/mTOR signaling in human U87 cells assessed as up regulation of F-box protein 25 gene expression at cytotoxic IC50 measured after 48 hrs relative to control
[8] = Inhibition of RTK/PI3K/AKT/mTOR signaling in human U87 cells assessed as up regulation of formin like 2 gene expression at cytotoxic IC50 measured after 48 hrs relative to control
[9] = Inhibition of RTK/PI3K/AKT/mTOR signaling in human U87 cells assessed as down regulation of HACL1 gene expression at cytotoxic IC50 measured after 48 hrs relative to control
[10] = Inhibition of RTK/PI3K/AKT/mTOR signaling in human U87 cells assessed as up regulation of GLRX gene expression at cytotoxic IC50 measured after 48 hrs relative to control
[11] = Inhibition of RTK/PI3K/AKT/mTOR signaling in human U87 cells assessed as up regulation of galectin 1 gene expression at cytotoxic IC50 measured after 48 hrs relative to control
[12] = Inhibition of RTK/PI3K/AKT/mTOR signaling in human U87 cells assessed as up regulation of tropomyosin 2 (beta) gene expression at cytotoxic IC50 measured after 48 hrs relative to control
[13] = Inhibition of RTK/PI3K/AKT/mTOR signaling in human U87 cells assessed as up regulation of DDOST gene expression at cytotoxic IC50 measured after 48 hrs relative to control
[14] = Inhibition of RTK/PI3K/AKT/mTOR signaling in human U87 cells assessed as up regulation of DDX18 gene expression at cytotoxic IC50 measured after 48 hrs relative to control
[15] = Inhibition of RTK/PI3K/AKT/mTOR signaling in human U87 cells assessed as down regulation of METTL14 gene expression at cytotoxic IC50 measured after 48 hrs relative to control
[16] = Inhibition of RTK/PI3K/AKT/mTOR signaling in human U87 cells assessed as down regulation of TBRG1 gene expression at cytotoxic IC50 measured after 48 hrs relative to control
[17] = Inhibition of RTK/PI3K/AKT/mTOR signaling in human U87 cells assessed as up regulation of RPRD1A gene expression at cytotoxic IC50 measured after 48 hrs relative to control
[18] = Inhibition of RTK/PI3K/AKT/mTOR signaling in human U87 cells assessed as up regulation of KLK10 gene expression at cytotoxic IC50 measured after 48 hrs relative to control
[19] = Inhibition of RTK/PI3K/AKT/mTOR signaling in human U87 cells assessed as down regulation of SNHG1 gene expression at cytotoxic IC50 measured after 48 hrs relative to control
[20] = Inhibition of RTK/PI3K/AKT/mTOR signaling in human U87 cells assessed as down regulation of FUBP1 gene expression at cytotoxic IC50 measured after 48 hrs relative to control
[21] = Inhibition of RTK/PI3K/AKT/mTOR signaling in human U87 cells assessed as up regulation of SYT12 gene expression at cytotoxic IC50 measured after 48 hrs relative to control
[22] = Inhibition of RTK/PI3K/AKT/mTOR signaling in human U87 cells assessed as up regulation of hook microtubule tethering protein 2 gene expression at cytotoxic IC50 measured after 48 hrs relative to control
[23] = Inhibition of RTK/PI3K/AKT/mTOR signaling in human U87 cells assessed as down regulation of WWC3 gene expression at cytotoxic IC50 measured after 48 hrs relative to control
[24] = Inhibition of RTK/PI3K/AKT/mTOR signaling in human U87 cells assessed as up regulation of ABI2 gene expression at cytotoxic IC50 measured after 48 hrs relative to control
[25] = Inhibition of RTK/PI3K/AKT/mTOR signaling in human U87 cells assessed as down regulation of KBTBD8 gene expression at cytotoxic IC50 measured after 48 hrs relative to control
[26] = Inhibition of RTK/PI3K/AKT/mTOR signaling in human U87 cells assessed as up regulation of NCK interacting protein with SH3 domain gene expression at cytotoxic IC50 measured after 48 hrs relative to control
[27] = Inhibition of RTK/PI3K/AKT/mTOR signaling in human U87 cells assessed as up regulation of small G protein signaling modulator 2 gene expression at cytotoxic IC50 measured after 48 hrs relative to control
[28] = Inhibition of RTK/PI3K/AKT/mTOR signaling in human U87 cells assessed as down regulation of BROX gene expression at cytotoxic IC50 measured after 48 hrs relative to control
[29] = Inhibition of RTK/PI3K/AKT/mTOR signaling in human U87 cells assessed as down regulation of CYTH3 gene expression at cytotoxic IC50 measured after 48 hrs relative to control
[30] = Inhibition of RTK/PI3K/AKT/mTOR signaling in human U87 cells assessed as down regulation of FARP2 gene expression at cytotoxic IC50 measured after 48 hrs relative to control
[31] = Inhibition of RTK/PI3K/AKT/mTOR signaling in human U87 cells assessed as down regulation of NEFM gene expression at cytotoxic IC50 measured after 48 hrs relative to control
[32] = Inhibition of RTK/PI3K/AKT/mTOR signaling in human U87 cells assessed as up regulation of pyrroline-5-carboxylate reductase 1 gene expression at cytotoxic IC50 measured after 48 hrs relative to control

CC(=O)C(=NNc1ccccc1C#N)C(C)=O
log2FC [1]: -0.422
log2FC [2]: -0.627
log2FC [3]: 2.16
log2FC [4]: -0.751
log2FC [5]: 0.802
log2FC [6]: -0.871
log2FC [7]: 0.773
log2FC [8]: 0.902
log2FC [9]: -0.879
log2FC [10]: 2.1
log2FC [11]: 1.29
log2FC [12]: 0.674
log2FC [13]: 0.441
log2FC [14]: 0.404
log2FC [15]: -0.686
log2FC [16]: -0.78
log2FC [17]: 0.562
log2FC [18]: 2.19
log2FC [19]: -0.445
log2FC [20]: -1.74
log2FC [21]: 2.42
log2FC [22]: 1.44
log2FC [23]: -1.75
log2FC [24]: 0.552
log2FC [25]: -3.86
log2FC [26]: 0.976
log2FC [27]: 0.902
log2FC [28]: -0.636
log2FC [29]: -0.507
log2FC [30]: -1.04
log2FC [31]: -7.64
log2FC [32]: 1.35
